Measured values: patent US9249124B2 (priority 2011, dated 2016)

Tested on: phosphorylation of serine 10 on Histone H3 (Aurora A substrate) in MDA-MB-468 breast cancer cells

SMILES: CCOC(=O)c1ccc(Nc2nc(Cl)c(Cl)c(Nc3ccccc3C(=O)O)n2)cc1.Cl [Compound 3t, N^4-(2-Carboxyphenyl)-N^2-(4-ethoxycarbonylphenyl)-5,6-dichloropyrimidine-2,4-diamine hydrochloride]
- activity in whole / intact cells: poor activity in intact cells
